# Test results from publication PMC3979655.
# Chains of the proteins cited; added tags and fusions are not shown.
# UniProt O22456: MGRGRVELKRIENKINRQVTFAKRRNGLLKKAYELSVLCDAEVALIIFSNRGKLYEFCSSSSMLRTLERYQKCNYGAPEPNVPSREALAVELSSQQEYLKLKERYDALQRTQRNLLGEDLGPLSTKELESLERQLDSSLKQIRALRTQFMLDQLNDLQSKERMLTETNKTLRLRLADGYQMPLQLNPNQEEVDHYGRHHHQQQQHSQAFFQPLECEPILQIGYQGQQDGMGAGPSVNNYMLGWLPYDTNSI
# UniProt P35631: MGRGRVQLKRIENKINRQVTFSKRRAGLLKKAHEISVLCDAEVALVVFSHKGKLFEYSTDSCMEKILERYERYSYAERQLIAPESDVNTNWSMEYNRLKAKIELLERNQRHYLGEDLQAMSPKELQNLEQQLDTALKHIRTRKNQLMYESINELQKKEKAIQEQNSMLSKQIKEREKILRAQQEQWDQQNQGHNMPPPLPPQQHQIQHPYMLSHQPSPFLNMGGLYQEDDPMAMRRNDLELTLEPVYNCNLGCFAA
# UniProt O64645: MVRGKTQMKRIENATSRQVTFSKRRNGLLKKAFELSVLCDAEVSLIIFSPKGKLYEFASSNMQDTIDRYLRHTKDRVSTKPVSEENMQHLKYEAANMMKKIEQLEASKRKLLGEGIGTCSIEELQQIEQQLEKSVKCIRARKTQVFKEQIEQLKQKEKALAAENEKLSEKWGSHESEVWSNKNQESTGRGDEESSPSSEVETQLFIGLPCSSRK
# Results are given in words; binding and its absence hold for the method and conditions named. In cells and extracts the contact can be indirect. Binding can be weak; no strength is given.
# Molecular target: GFP-tagged SAP54 transiently expressed in N. benthamiana (Aster Yellows phytoplasma strain Witches' Broom (AY-WB)) (UniProt Q2NJQ2)
# Assay: co-IP; GFP-Trap immunoprecipitation from N. benthamiana leaves transiently co-expressing GFP-tagged SAP54 or GFP and 10xmyc-tagged MTFs, in the presence or absence of 50 µM epoxomicin; 4°C overnight; blot with anti-myc
row,Substance,binding
1,"10xmyc-tagged SEP3 (35S:10xmyc–MTF, pGWB21) (from UniProt O22456 1-251)",binds
2,"10xmyc-tagged AP1 (35S:10xmyc–MTF, pGWB21) (from UniProt P35631 1-256)",binds
3,"10xmyc-tagged SOC1 (35S:10xmyc–MTF, pGWB21) (from UniProt O64645 1-214)",binds
